The campaign covered roughly 140,000 compounds. About 4,300 (3.1%) were called active. The shares of active, inactive and inconclusive entries below differ from those in the screen.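 The calls were made as follows: active = readout at or below -70, meaning at least 70% loss of cells showing the perinucleolar compartment, a nuclear body marking cancer cells; inconclusive = readout between -30 and a set limit; inactive = the rest.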
Assay: High Content Assay for Compounds that inhibit the Assembly of the Perinucleolar Compartment;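 also: plate controls were DMSO wells for no effect and camptothecin positive control wells for full effect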
Conditions: PC3M PTB-GFP, PNC prevalence imaging, 16 h; at 10 µM; stronger effect = lower value
Procedure, shortened: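 Read-out is percentage of cells bearing a perinucleolar compartment, from automated 20x imaging of fixed, Hoechst-stained PC3M PTB-GFP cells. Cells were seeded 4 h, then exposed 16 h to compound (23 nl of library stock) in duplicate plates.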

Question: For `CC(C)(C)c1[nH]nc2c1C(c1ccc(OC(=O)c3ccco3)cc1)C(C#N)=C(N)O2` (stereo not given), which activity change (PNC), negative = inhibition is on record?
Answer: Its activity change (PNC), negative = inhibition is inactive: -23.7%.

Question: With `O=C(CCCCCn1c(SCc2ccncc2)nc2ccccc2c1=O)NCc1ccco1` as the compound, how does the activity change (PNC), negative = inhibition read?
Answer: The activity change (PNC), negative = inhibition was active: -100%.

Question: With `CCOc1cc(C)c(S(=O)(=O)Nc2ccc(F)cc2)cc1C` as the compound, how does the activity change (PNC), negative = inhibition read?
Answer: Its activity change (PNC), negative = inhibition is inconclusive: -39.3%.

Question: For `COc1ccc(N(C(C)=O)S(=O)(=O)c2cccc3cccnc23)cc1`, which activity change (PNC), negative = inhibition is on record?
Answer: Its activity change (PNC), negative = inhibition is inactive: -16.6%.

Question: Which activity change (PNC), negative = inhibition does the source give for `CCOC(=O)Cc1c(C)[nH]c(=S)[nH]c1=O` here?
Answer: Its activity change (PNC), negative = inhibition is inconclusive: -35.3%.

Question: Which activity change (PNC), negative = inhibition does the source give for `COc1ccc(CNC(=S)Nc2ccccc2C)cc1` here?
Answer: Its activity change (PNC), negative = inhibition is inconclusive: -41.6%.

Question: Which activity change (PNC), negative = inhibition does the source give for `CCn1c(O)c(/C=C2\C=Nc3ccccc32)sc1=Nc1ccccc1` here?
Answer: The activity change (PNC), negative = inhibition was inconclusive: -76.1%.

Question: Which activity change (PNC), negative = inhibition does the source give for `O=C(C(Cl)Cl)N1CCN(c2ccccn2)CC1` here?
Answer: Its activity change (PNC), negative = inhibition is inactive: 42.3%.

Question: With `CCCN(C(=O)CSc1cc(-c2ccccc2)c2ccc(OC)cc2n1)C1CCS(=O)(=O)C1` (stereo not given) as the compound, how does the activity change (PNC), negative = inhibition read?
Answer: The activity change (PNC), negative = inhibition was inconclusive: -48.6%.

Question: Which activity change (PNC), negative = inhibition does the source give for `CN1C(=O)c2cccc(NC(=O)CCc3ccccc3)c2C1=O` here?
Answer: The activity change (PNC), negative = inhibition was inconclusive: -74.3%.

Question: With `CC(C)COC(=O)c1ccccc1N1C(=O)C2C3CCC(C3)C2C1=O` (stereo not given) as the compound, how does the activity change (PNC), negative = inhibition read?
Answer: The activity change (PNC), negative = inhibition was inactive: -27.8%.

Question: For `O=C(O)c1ccc(NC(=O)C2(c3ccccc3)CCOCC2)cc1`, which activity change (PNC), negative = inhibition is on record?
Answer: The activity change (PNC), negative = inhibition was inconclusive: -52%.

Question: With `Cc1ccc2nc(NC(=O)c3ccc(NS(=O)(=O)c4cccs4)cc3)sc2c1` as the compound, how does the activity change (PNC), negative = inhibition read?
Answer: The activity change (PNC), negative = inhibition was inactive: -24.7%.

Question: Which activity change (PNC), negative = inhibition does the source give for `COc1ccccc1C1CN(c2ccc(F)cc2F)N=C1c1cccs1` (stereo not given) here?
Answer: The activity change (PNC), negative = inhibition was active: -94.4%.

Question: For `CN(C)S(=O)(=O)c1ccc2nnn(OCC(=O)NC34CC5CC(CC(C5)C3)C4)c2c1`, which activity change (PNC), negative = inhibition is on record?
Answer: The activity change (PNC), negative = inhibition was inconclusive: -61.8%.

Question: Which activity change (PNC), negative = inhibition does the source give for `CCCCN(CCCC)S(=O)(=O)c1ccc(SCC(=O)OCC)c([N+](=O)[O-])c1` here?
Answer: Its activity change (PNC), negative = inhibition is active: -87.5%.

Question: With `CC(C)CC(NC(=O)c1ccccc1)C(=O)N/N=C/c1ccco1` (stereo not given) as the compound, how does the activity change (PNC), negative = inhibition read?
Answer: The activity change (PNC), negative = inhibition was inconclusive: -41.8%.

Question: With `COc1ccc(CCNC(=O)CSc2nc(-c3ccco3)cc(C(F)(F)F)n2)cc1OC` as the compound, how does the activity change (PNC), negative = inhibition read?
Answer: Its activity change (PNC), negative = inhibition is inconclusive: -31.6%.

Question: With `Cn1c(Cn2cnc(Cl)c2Cl)nc2ccccc21` as the compound, how does the activity change (PNC), negative = inhibition read?
Answer: The activity change (PNC), negative = inhibition was inconclusive: -33.8%.

Question: With `COc1ccc(-n2ncc(N(C)n3cccc3)c(Cl)c2=O)cc1` as the compound, how does the activity change (PNC), negative = inhibition read?
Answer: The activity change (PNC), negative = inhibition was inactive: -8.95%.

Question: For `Cc1ccc(S(=O)(=O)N(C)C)cc1NC(=O)CN1C(=O)NC2(CCCc3ccccc32)C1=O` (stereo not given), which activity change (PNC), negative = inhibition is on record?
Answer: The activity change (PNC), negative = inhibition was inconclusive: -53.9%.

Question: For `Cc1nc(SCC(=O)NCc2ccco2)c2c3c(sc2n1)CCCC3`, which activity change (PNC), negative = inhibition is on record?
Answer: The activity change (PNC), negative = inhibition was inconclusive: -34.4%.

Question: Which activity change (PNC), negative = inhibition does the source give for `O=C(CCl)NCc1c(Cl)cccc1-n1cccc1` here?
Answer: The activity change (PNC), negative = inhibition was inconclusive: -42.1%.

Question: For `CCCn1nnc(NC(=O)c2cc3ccccc3o2)n1`, which activity change (PNC), negative = inhibition is on record?
Answer: The activity change (PNC), negative = inhibition was inconclusive: -34.5%.

Question: For `O=C(CSCc1c(F)cccc1Cl)NCc1cccnc1`, which activity change (PNC), negative = inhibition is on record?
Answer: Its activity change (PNC), negative = inhibition is inconclusive: -35.7%.

Question: With `Cc1ccc(C(=O)Nc2ccc(O)c(C(=O)O)c2)o1` as the compound, how does the activity change (PNC), negative = inhibition read?
Answer: Its activity change (PNC), negative = inhibition is inconclusive: -44.7%.

Question: Which activity change (PNC), negative = inhibition does the source give for `CC(NS(=O)(=O)c1ccccc1)C(=O)NCc1ccco1` (stereo not given) here?
Answer: The activity change (PNC), negative = inhibition was inconclusive: -50.4%.

Question: Which activity change (PNC), negative = inhibition does the source give for `CNC(=S)N/N=C(\C)c1cccc([N+](=O)[O-])c1` here?
Answer: The activity change (PNC), negative = inhibition was inconclusive: -34.1%.

Question: For `O=C(CCCn1c(=O)oc2ccccc21)Nc1cccnc1`, which activity change (PNC), negative = inhibition is on record?
Answer: Its activity change (PNC), negative = inhibition is inconclusive: -50.9%.

Question: Which activity change (PNC), negative = inhibition does the source give for `CC(=O)c1c(N2CCN(c3cccc(Cl)c3)CC2)nc(=S)n(-c2ccccc2)c1C` here?
Answer: Its activity change (PNC), negative = inhibition is inconclusive: -41.5%.

Question: Which activity change (PNC), negative = inhibition does the source give for `Cn1c(=O)c2c(ncn2CC(O)CNc2ccc(Cl)cc2)n(C)c1=O` (stereo not given) here?
Answer: The activity change (PNC), negative = inhibition was inconclusive: -32%.

Question: For `COc1ccccc1NS(=O)(=O)c1ccc2oc(SCc3ccc(F)cc3)nc2c1`, which activity change (PNC), negative = inhibition is on record?
Answer: The activity change (PNC), negative = inhibition was inconclusive: -44.8%.

Question: Which activity change (PNC), negative = inhibition does the source give for `CCCc1cc(-c2n[nH]c(=S)n2CC(C)C)cs1` here?
Answer: Its activity change (PNC), negative = inhibition is inactive: -7.33%.

Question: With `O=C(Nc1ccccn1)c1cc(-n2cnnc2)ccc1Cl` as the compound, how does the activity change (PNC), negative = inhibition read?
Answer: The activity change (PNC), negative = inhibition was inactive: 22.5%.

Question: Which activity change (PNC), negative = inhibition does the source give for `CC1=NN(C(N)=S)C(=O)C1N=Nc1ccccc1C` (stereo not given) here?
Answer: The activity change (PNC), negative = inhibition was inactive: -2.09%.

Question: With `Cc1c(C#N)c(NC(=O)c2cccc(Cl)c2)n(Cc2ccccc2)c1C` as the compound, how does the activity change (PNC), negative = inhibition read?
Answer: Its activity change (PNC), negative = inhibition is inconclusive: -52%.

Question: For `O=C(NNS(=O)(=O)c1ccc(F)c(Cl)c1)c1cccc(S(=O)(=O)N2CCOCC2)c1`, which activity change (PNC), negative = inhibition is on record?
Answer: The activity change (PNC), negative = inhibition was inactive: 27.5%.

Question: With `O=C(CSCC(=O)N1CCCc2ccccc21)Nc1nc(-c2ccccc2)cs1` as the compound, how does the activity change (PNC), negative = inhibition read?
Answer: The activity change (PNC), negative = inhibition was inactive: 8.08%.

Question: Which activity change (PNC), negative = inhibition does the source give for `O=C(CN1CCN(CC(=O)Nc2ccccc2Cl)CC1)Nc1ccc2c(c1)OCCO2` here?
Answer: The activity change (PNC), negative = inhibition was active: -100%.

Question: For `Cc1ccccc1NC(=O)CCN1CCN(Cc2ccccc2)CC1`, which activity change (PNC), negative = inhibition is on record?
Answer: The activity change (PNC), negative = inhibition was inconclusive: -50.5%.

Question: For `O=C(COC(=O)CCC(=O)Nc1nccs1)NCc1ccco1`, which activity change (PNC), negative = inhibition is on record?
Answer: The activity change (PNC), negative = inhibition was inactive: -23.3%.

Question: For `O=C(NCc1cccs1)c1nc2c(nnn2Cc2ccccc2Cl)c(=O)[nH]1`, which activity change (PNC), negative = inhibition is on record?
Answer: The activity change (PNC), negative = inhibition was inactive: -18.7%.

Question: For `CCOc1ccc(S(=O)(=O)Nc2cccc(OC)c2)cc1`, which activity change (PNC), negative = inhibition is on record?
Answer: Its activity change (PNC), negative = inhibition is inconclusive: -71.8%.

Question: For `S=C1NCCOCCNC(=S)NCCOCCOCCOCCN1`, which activity change (PNC), negative = inhibition is on record?
Answer: The activity change (PNC), negative = inhibition was inconclusive: -78.7%.

Question: Which activity change (PNC), negative = inhibition does the source give for `N#Cc1c(OCC(=O)c2ccccc2)nc2c(c1-c1ccco1)CCc1ccccc1-2` here?
Answer: Its activity change (PNC), negative = inhibition is inconclusive: -36.4%.
